## Microarray screen: hit calls

Data from the ROBIN nucleic acid binder screens, doi:10.1002/anie.202211358.

Targets (5′ to 3′):
T1: SAM-II riboswitch RNA pseudoknot, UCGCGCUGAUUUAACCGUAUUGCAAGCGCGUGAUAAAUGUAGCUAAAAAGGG. About 200 hits among about 21,000 compounds.
T2: PreQ1 riboswitch RNA pseudoknot, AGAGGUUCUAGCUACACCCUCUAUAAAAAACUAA. From B. subtilis. About 170 hits among about 24,000 compounds.
T3: TPP riboswitch RNA three-way junction, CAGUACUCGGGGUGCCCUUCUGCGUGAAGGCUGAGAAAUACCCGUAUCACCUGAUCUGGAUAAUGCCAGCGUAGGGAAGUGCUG. About 160 hits among about 24,000 compounds.

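Each compound is printed as two spots on a slide made to bind it covalently, so it has no test concentration; the read-out is fluorescence of the bound, labelled oligonucleotide. For the PreQ1, TPP and SAM-II riboswitches the laboratory earlier reported (doi:10.1038/s41467-019-09493-3) 1 µM RNA, 2 h, and a rule that included a mean Z-score above 3 (spot signal-to-noise against the whole library), a score well above that on a control array, and duplicate spots agreeing (coefficient of variation under 100). The data file gives only the calls; its cut-offs may differ, and compounds hitting several targets are kept. These are primary screening calls, not affinities; a compound without a hit may have attached poorly or may still bind in solution.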 Key: hit = hit, no hit = tested without a hit. Compounds were drawn at random from those tested, without regard to their results. A dash means that no call is listed here.

Compound | T1 | T2 | T3
Cn1c(=O)c2c(-c3ccccc3Br)n(CCO)cc2n(C)c1=O | - | no hit | no hit
Nc1ncccc1CN1CCOCC1CC(=O)Nc1ccc2c(c1)CCC2 (stereo not given) | no hit | no hit | no hit
CNCC1OC2CCCCC2c2sccc21 (stereo not given) | no hit | no hit | no hit
CNc1cc(C)nc2c(C)c(-c3cccc(Cl)c3)nn12 | - | no hit | no hit
O=C1SC(Nc2cccc(F)c2)C(=O)N1c1ccccc1 (stereo not given) | no hit | no hit | no hit
CCN1CCN(Cc2ccc(Nc3ncc(F)c(-c4cc(F)c5nc(C)n(C(C)C)c5c4)n3)nc2)CC1 | no hit | no hit | no hit
Cc1csc(CCNS(=O)(=O)c2sc3c(c2C(=O)O)CCNC3)n1 | no hit | no hit | no hit
CCCCOc1ccccc1NC1=NS(=O)(=O)c2ccccc21 | no hit | no hit | no hit
COc1ccc(C2CC(C(F)(F)F)n3nc(CO)c(Cl)c3N2)cc1OC (stereo not given) | no hit | no hit | no hit
Cn1c(=O)n(C)c2cc(CNCCc3c[nH]c4ccccc34)ccc21 | - | no hit | no hit
N=c1n(CCN2CCCCC2)c2ccccc2n1CC(O)COc1ccccc1 (stereo not given) | no hit | no hit | no hit
c1cc(-c2nnc(Nc3ccc4c(c3)OCO4)o2)[nH]n1 | no hit | no hit | no hit
CC(=O)c1cc(C(=O)NC(CCO)c2ccc(C)cc2)[nH]n1 (stereo not given) | no hit | no hit | no hit
CCCCCCN1CC(=O)C(c2nc3ccccc3[nH]2)=C1N | - | no hit | no hit
CCCC(=O)Oc1ccc(C2C(C#N)=C(N)OC3=C2C(=O)CCC3)cc1 (stereo not given) | no hit | no hit | no hit
CC(C)NC(=O)[C@@H]1C[C@@H](N)CN1Cc1nc(-c2ccccc2)cs1 | no hit | no hit | no hit
CCC(=O)C1=C(NCCc2c(C)[nH]c3ccc(C)cc23)CCCC1=O | no hit | no hit | no hit
CC(=O)Nc1ccc([As](=O)(O)c2ccc([N+](=O)[O-])cc2)cc1 | no hit | no hit | no hit
COc1cc([C@@H]2c3cc4c(cc3[C@@H](OC3OC5CO[C@@H](c6cccs6)OC5C(O)C3O)[C@H]3COC(=O)[C@H]23)OCO4)cc(OC)c1O (stereo not given in full) | no hit | no hit | no hit
CCOc1ccc(C2C=C(c3ccc(C)cc3)Nc3nc(CCCO)nn32)cc1 (stereo not given) | no hit | no hit | no hit
CCOC(=O)c1c(N)sc2c(OCc3ccccc3)c(Br)ccc12 | no hit | no hit | no hit
Cc1nn(C)c(C)c1CCc1ncnn1CCO | no hit | no hit | no hit
COc1ccc(NC(=O)c2sc3ncccc3c2N)cc1 | no hit | no hit | no hit
CCCSc1nc2ccccc2n1CCO | no hit | no hit | no hit
CCCCn1c2nc3ccccc3nc2c2c(N)ncnc21 | no hit | no hit | no hit
CN(C)/C=N/c1ccc(Cl)c(Cl)c1 | no hit | no hit | no hit
COc1ccc(C)cc1NC1=NS(=O)(=O)c2ccccc21 | - | no hit | no hit
CCC(CC)C(=O)N1CCN(c2cc(Nc3ccc(C)cc3)nc(C)n2)CC1 | - | no hit | no hit
N[C@H]1CN(c2ccc(C(F)(F)F)cn2)C[C@@H]1C1CC1 | no hit | no hit | no hit
O=C(O)c1nc2nc(Cl)c(Cl)nc2[nH]1 | no hit | no hit | no hit
CCC(C)NCc1ccc(OCc2ccc3c(c2)n(C)c(=O)n3C)c(OC)c1 (stereo not given) | - | no hit | no hit
CCOC(=O)/C=C/c1nc(=O)c(C)c(C(=O)OCC)[nH]1 | no hit | no hit | no hit
N#Cc1ccsc1N | no hit | no hit | no hit
CCOc1ccc(NC(=O)N2CCC(N)C2)cc1C#N (stereo not given) | no hit | no hit | no hit
Cc1cc(C)nc(Nc2ncc(O)n2-c2ccccc2C)n1 | no hit | no hit | no hit
NC(CO)c1nc2ccccc2[nH]1 (stereo not given) | no hit | no hit | no hit
CC(C)(C)CC(C)(C)N1CNC(=S)NC1 | no hit | no hit | no hit
CS(=O)(=O)c1ccc(N2CCN(CC3(O)CNCCOC3)CC2)c(F)c1 (stereo not given) | no hit | no hit | no hit
COC(=O)[C@@H]1C[C@@H](NC(=O)c2cc(N)ccn2)CN1C | no hit | no hit | no hit
OC[C@H]1CN(Cc2ccc(-n3ccnc3)cc2)C[C@H]1CN1CCCCC1 | no hit | no hit | no hit
COc1ccc(N)cc1Cl | no hit | no hit | no hit
CSCC[C@@H](CO)n1ccnc1-c1ccc(C)o1 | no hit | no hit | no hit
CCOC(=O)c1c(Cl)cc(Cl)c(N)c1[N+](=O)[O-] | no hit | no hit | no hit
C1CN(c2nc(N3CCOCC3)nc(N3CCOCC3)n2)CCN1 | no hit | no hit | no hit
CC(C)OC(=O)c1cc(NC(=O)N2CCOCC(O)C2)ccc1Cl (stereo not given) | no hit | no hit | no hit
Cn1ccnc1CN1CCN(CC2(O)CNCCOC2)CC1 (stereo not given) | no hit | no hit | no hit
CCc1nc2nc(C)cc(NCc3ccc(C)cc3)n2n1 | no hit | no hit | no hit
NCCCCC(=O)N1CCOC(c2ccc(Cl)cc2)C1 (stereo not given) | no hit | no hit | no hit
Nc1ccc(Br)cc1C(O)c1ccccc1Cl (stereo not given) | no hit | no hit | no hit
Cc1nn(C(C)CC(=O)O)c(C)c1-c1cc(-c2ccoc2)c(C#N)c(N)n1 (stereo not given) | no hit | no hit | no hit
Cc1ccc(NCC(O)Cn2c(C)c(C)c3ccccc32)c(C)c1 (stereo not given) | no hit | no hit | no hit
COc1cccc(-c2cnc(NCc3cc(Br)ccc3F)n2C)c1 | no hit | no hit | no hit
Cc1c(Nc2ccc([N+](=O)[O-])ccc2=O)c(=O)n(-c2ccccc2)n1C | no hit | no hit | no hit
COc1ccc2c(CNC3CCCC3)c(C(=O)O)[nH]c2c1 | - | no hit | no hit
Clc1ccc(-c2c(C3=NCCCN3)nnn2-c2ccc(Cl)cc2)cc1 | no hit | no hit | no hit
CN(C(=O)c1n[nH]c2c1CCCC2)[C@@H]1CS(=O)(=O)C[C@H]1O | no hit | no hit | no hit
O=C(CCN1CCC(C(O)c2cccs2)CC1)NCc1cccs1 (stereo not given) | no hit | no hit | no hit
CNc1c(NS(=O)(=O)c2ccc(OC)cc2)c(=O)oc2ccccc12 | no hit | no hit | no hit
O=C1C(Cl)=C(O)C2(Cl)C(Cl)=C(Cl)C12Cl (stereo not given) | no hit | no hit | no hit
CCCc1cc(NC(C)C)n2nc3nc(C)cc(C)c3c2n1 | - | no hit | no hit
Cc1cc(S(=O)(=O)NC[C@@H]2CCNC[C@H]2O)c(C)cc1Cl | no hit | no hit | no hit
COc1cc(CNC(C)(C)C)ccc1OCc1ccc2c(c1)n(C)c(=O)n2C | - | no hit | no hit
CC(O)c1nc2ccccc2n1CCCc1ccccc1 (stereo not given) | no hit | no hit | no hit
CC(=O)c1cccc(Nc2ccnc3ccc(F)cc23)c1 | no hit | no hit | no hit
Nc1c(C(=O)c2ccccc2)sc2nc(-c3ccccc3)ccc12 | no hit | no hit | no hit
CCOc1ccc(-c2cnc(NCc3cccc(Cl)c3)n2C)cc1 | no hit | no hit | no hit
CCC(C)Nc1nc2c(S(=O)(=O)c3ccccc3)nnn2c2ccccc12 (stereo not given) | no hit | no hit | no hit
C=CCN1C(=O)C2(c3ccccc31)c1c(oc3cc(C)c(C)cc3c1=O)C(=O)N2CCCO (stereo not given) | - | no hit | no hit
CSc1ccc(CN(CCO)Cc2cc(C)nn2C)cc1 | no hit | no hit | no hit
CC(C)(C)C1(O)C[C@@H]2OC(=O)C[C@@]23C(=O)O[C@@H]2OC(=O)[C@H](O)C213 (stereo not given in full) | no hit | no hit | no hit
O=S(=O)(c1ccccc1)c1nnn2c1nc(NC1CCCCC1)c1ccccc12 | no hit | no hit | no hit
COc1ccc(C)cc1Nc1nc2ccc(Cl)cc2n2cnnc12 | no hit | no hit | no hit
O=C(NCCO)c1c2c(nc3ccccc13)CCCC2 | no hit | no hit | no hit
Cc1ccc(C(C)C)c(OCCCn2c(CO)nc3ccccc32)c1 | - | no hit | no hit
Cc1ncc(CO)c(CN2CCN(Cc3c[nH]nn3)CC(O)C2)c1O (stereo not given) | no hit | no hit | no hit
c1ccc(CCNc2c3c(nc4ccccc24)CCC3)cc1 | no hit | no hit | no hit

The last 10 entries again:

| Compound | T1 | T2 | T3 |
|---|---|---|---|
| `CCC(C)Nc1nc2c(S(=O)(=O)c3ccccc3)nnn2c2ccccc12` (stereo not given) | no hit | no hit | no hit |
| `C=CCN1C(=O)C2(c3ccccc31)c1c(oc3cc(C)c(C)cc3c1=O)C(=O)N2CCCO` (stereo not given) | - | no hit | no hit |
| `CSc1ccc(CN(CCO)Cc2cc(C)nn2C)cc1` | no hit | no hit | no hit |
| `CC(C)(C)C1(O)C[C@@H]2OC(=O)C[C@@]23C(=O)O[C@@H]2OC(=O)[C@H](O)C213` (stereo not given in full) | no hit | no hit | no hit |
| `O=S(=O)(c1ccccc1)c1nnn2c1nc(NC1CCCCC1)c1ccccc12` | no hit | no hit | no hit |
| `COc1ccc(C)cc1Nc1nc2ccc(Cl)cc2n2cnnc12` | no hit | no hit | no hit |
| `O=C(NCCO)c1c2c(nc3ccccc13)CCCC2` | no hit | no hit | no hit |
| `Cc1ccc(C(C)C)c(OCCCn2c(CO)nc3ccccc32)c1` | - | no hit | no hit |
| `Cc1ncc(CO)c(CN2CCN(Cc3c[nH]nn3)CC(O)C2)c1O` (stereo not given) | no hit | no hit | no hit |
| `c1ccc(CCNc2c3c(nc4ccccc24)CCC3)cc1` | no hit | no hit | no hit |